In PMC8200294:
Results are given in words; binding and its absence hold for the method and conditions named. In cells and extracts the contact can be indirect. Some entries that bind do so weakly or less than the wild type.

Amino acid sequences for entries named in this document (tags omitted). A change or cut given only in a name is not applied to a line headed by its entry. Residues count along the entry.
UniProt P19022, residues 160-906: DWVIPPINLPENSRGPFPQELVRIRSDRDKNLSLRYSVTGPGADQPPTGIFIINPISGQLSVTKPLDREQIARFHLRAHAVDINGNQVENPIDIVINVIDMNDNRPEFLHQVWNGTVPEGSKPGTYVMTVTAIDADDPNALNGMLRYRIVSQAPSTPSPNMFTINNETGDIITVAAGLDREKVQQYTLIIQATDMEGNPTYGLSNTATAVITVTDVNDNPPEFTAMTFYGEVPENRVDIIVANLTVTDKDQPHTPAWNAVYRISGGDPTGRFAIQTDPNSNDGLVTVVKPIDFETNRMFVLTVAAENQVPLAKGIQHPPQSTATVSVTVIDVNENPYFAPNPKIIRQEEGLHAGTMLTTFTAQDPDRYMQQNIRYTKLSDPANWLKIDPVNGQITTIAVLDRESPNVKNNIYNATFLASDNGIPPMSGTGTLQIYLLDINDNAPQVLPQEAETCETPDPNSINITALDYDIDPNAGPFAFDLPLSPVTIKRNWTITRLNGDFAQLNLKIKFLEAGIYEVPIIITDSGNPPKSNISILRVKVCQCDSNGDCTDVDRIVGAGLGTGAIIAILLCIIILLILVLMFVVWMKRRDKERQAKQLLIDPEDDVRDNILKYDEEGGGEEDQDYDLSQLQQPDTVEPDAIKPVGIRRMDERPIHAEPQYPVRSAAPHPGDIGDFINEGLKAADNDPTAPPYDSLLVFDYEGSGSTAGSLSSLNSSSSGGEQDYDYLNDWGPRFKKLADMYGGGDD
UniProt P17302: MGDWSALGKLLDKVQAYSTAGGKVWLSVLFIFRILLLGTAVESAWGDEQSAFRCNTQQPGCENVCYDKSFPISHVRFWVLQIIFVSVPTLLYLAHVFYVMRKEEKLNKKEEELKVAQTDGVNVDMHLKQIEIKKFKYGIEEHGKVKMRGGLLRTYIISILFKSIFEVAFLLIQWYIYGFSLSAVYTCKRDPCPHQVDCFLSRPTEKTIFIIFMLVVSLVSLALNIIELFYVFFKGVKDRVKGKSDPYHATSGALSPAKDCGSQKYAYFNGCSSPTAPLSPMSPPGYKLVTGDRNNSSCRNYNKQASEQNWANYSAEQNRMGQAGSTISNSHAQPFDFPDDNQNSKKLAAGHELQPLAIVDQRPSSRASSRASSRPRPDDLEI

Tests used:
[1] = biological target: N-cadherin (CDH2), endogenous (human (endogenous in MDA-MB-231, T47D, human BM-MSCs, BM stroma and BM biopsy)) (UniProt P19022); assay: co-IP; whole-cell lysates of unsorted breast cancer cells (MDA-MB-231, T47D); IP with anti-CDH2 or anti-Cx43 (IgG control) overnight at 4°C, magnetic beads, five washes in lysis buffer (50 mM Tris-HCl pH 7.4, 100 mM NaCl, 2 mM MgCl2, 10% glycerol, 1% NP-40); blot for Cx43 or CDH2
[2] = biological target: N-cadherin (CDH2), endogenous (human (endogenous in MDA-MB-231, T47D, human BM-MSCs, BM stroma and BM biopsy)) (UniProt P19022); assay: co-IP; whole-cell lysates of BM-MSCs or BM stromal cells; IP with anti-CDH2 or IgG; blot with anti-Cx43

With “connexin 43 (Cx43), endogenous (from UniProt P17302 1-382)” the binding [1] was “binds weakly” and the binding [2] was “binds”.
